Source: US8822691B2, “Pesticidal carboxamides” (Bayer CropScience AG, priority 2009, dated 2014)
Some of these results come from one statement about several compounds together.

Tests used:
Type in all cases: in vivo
[1] = test system: Boophilus microplus; experiment: Boophilus microplus-test (injection); conditions: application rate of 20 μg/animal; injection into adult engorged female ticks; after 7 days
Protocol: (§1) Solvent: dimethyl sulfoxide
To produce a suitable preparation of active compound, 10 mg of active compound are dissolved in 0.5 ml solvent, and the concentrate is diluted with solvent to the desired concentration. Five adult engorged female ticks (Boophilus microplus) are injected with 1 μl compound solution into the abdomen. Ticks are transferred into replica plates and incubated in a climate chamber for a period of time. Egg deposition of fertile eggs is monitored.
After 7 days mortality in % is determined. 100% means that all eggs are infertile; 0% means that all eggs are fertile.

[2] = test system: Ctenocephalides felis; experiment: Ctenocephalides felis-test (CTECFE); conditions: application rate of 100 ppm in cattle blood; adult unfed fleas; after 2 days
Protocol: as §1
To produce a suitable preparation of active compound, 10 mg of active compound are dissolved in 0.5 ml solvent, and the concentrate is diluted with cattle blood to the desired concentration. Approximately 20 adult unfed (Ctenocepahlides felis) are placed in flea chambers. The blood chamber, sealed with parafilm on the bottom, are filled with cattle blood supplied with compound solution and placed on top of the flea chamber, so that the fleas are able to suck the blood. The blood chamber is heated to 37° C. whereas the flea chamber is kept at room temperature. After 2 days mortality in % is determined. 100% means that all the fleas have been killed; 0% means that none of the fleas have been killed.

[3] = test system: Lucilia cuprina; experiment: Lucilia cuprina (48 h) larval test; conditions: application rate of 100 ppm; 1st instar larvae; after 48 hrs
Protocol: Species: Lucilia cuprina 1st instar larvae (age 24 hrs)
as §1
10 mg active compound are dissolve in 0.5 ml dimethyl sulfoxide. Serial dilutions are made to obtain the desired rates. Approximately 20 Lucilia cuprina 1st instar larvae are transferred into a test tube containing 1 cm^3 of minced horse meat and 0.5 ml aqueous dilution of test compound. After 48 hrs percentage of larval mortality are recorded. 100% efficacy all larvae are killed, % efficacy normally developed larvae after 48 hrs.

[4] = test system: Musca domestica; experiment: Musca domestica-test; conditions: application rate of 100 ppm; adults; after 2 days
Protocol: as §1
To produce a suitable preparation of active compound, 10 mg of active compound are dissolved in 0.5 ml solvent, and the concentrate is diluted with water to the desired concentration. Prior to the assay, a piece of kitchen sponge is soaked with a mixture of sugar and compound solution and placed into a container. 10 adults (Musca domestica) are placed into the container and closed with a perforated lid. After 2 days mortality in % is determined. 100% means that all the flies have been killed; 0% means that none of the flies have been killed.

CCc1cc(C(F)(C(F)(F)F)C(F)(F)Br)cc(C)c1NC(=O)c1ccc2ncccc2c1 (stereo not shown) [2-192]
100%: activity (mortality in %; 100% means that all eggs are infertile) [1] | activity (mortality) [2] | activity (larval mortality) [3]

CCc1cc(C(F)(C(F)(F)F)C(F)(F)F)cc(C)c1NC(=O)c1ccc2nc(Cl)ccc2c1 [2-29]
100%: activity (mortality) [4] | activity (larval mortality) [3]

CCc1cc(C(F)(C(F)(F)F)C(F)(F)F)cc(Br)c1NC(=O)c1ccc2nc(C#N)ccc2c1 [2-49]
100%: activity (mortality) [4] | activity (mortality in %; 100% means that all eggs are infertile) [1] | activity (larval mortality) [3]

Cc1cc(C(F)(C(F)(F)F)C(F)(F)F)cc(C(C)C)c1NC(=O)c1ccc2nc(C#N)ccc2c1 [2-37]
100%: activity (mortality in %; 100% means that all eggs are infertile) [1]

O=C(Nc1c(Br)cc(C(F)(C(F)(F)F)C(F)(F)C(F)(F)F)cc1Br)c1ccc2ncccc2c1 (stereo not shown) [2-108]
100%: activity (mortality in %; 100% means that all eggs are infertile) [1] | activity (larval mortality) [3]

CCOC(c1cc(C)c(NC(=O)c2ccc3nc(C#N)ccc3c2)c(CC)c1)(C(F)(F)F)C(F)(F)F [2-74]
100%: activity (mortality in %; 100% means that all eggs are infertile) [1] | activity (mortality) [2] | activity (larval mortality) [3]

N#Cc1ccc2cc(C(=O)Nc3c(I)cc(C(F)(C(F)(F)F)C(F)(F)C(F)(F)F)cc3I)ccc2n1 (stereo not shown) [2-113]
100%: activity (mortality in %; 100% means that all eggs are infertile) [1] | activity (mortality) [2] | activity (larval mortality) [3]

CCCc1cc(C(F)(C(F)(F)F)C(F)(F)C(F)(F)F)cc(Br)c1NC(=O)c1ccc2ncccc2c1 (stereo not shown) [2-162]
100%: activity (mortality) [4] | activity (mortality in %; 100% means that all eggs are infertile) [1] | activity (mortality) [2] | activity (larval mortality) [3]

CCc1cc(C(F)(C(F)(F)F)C(F)(F)F)cc(C)c1NC(=O)c1ccc2nc(C#N)ccc2c1 [2-31]
100%: activity (mortality) [4] | activity (mortality in %; 100% means that all eggs are infertile) [1] | activity (mortality) [2] | activity (larval mortality) [3]

CCc1cc(C(F)(C(F)(F)F)C(F)(F)Br)cc(C)c1NC(=O)c1ccc2c(ccc[n+]2[O-])c1 (stereo not shown) [2-193]
100%: activity (mortality in %; 100% means that all eggs are infertile) [1]

Cc1cc(C(F)(C(F)(F)F)C(F)(F)C(F)(F)F)cc(C)c1NC(=O)c1ccc2nc(C#N)ccc2c1 (stereo not shown) [2-87]
100%: activity (mortality) [4] | activity (mortality in %; 100% means that all eggs are infertile) [1] | activity (mortality) [2] | activity (larval mortality) [3]

N#Cc1ccc2cc(C(=O)Nc3c(Br)cc(C(F)(C(F)(F)F)C(F)(F)F)cc3SC(F)(F)F)ccc2n1 [2-66]
100%: activity (mortality) [4] | activity (mortality in %; 100% means that all eggs are infertile) [1] | activity (mortality) [2] | activity (larval mortality) [3]

N#Cc1ccc2cc(C(=O)Nc3c(Br)cc(C(F)(C(F)(F)F)C(F)(F)Br)cc3Br)ccc2n1 (stereo not shown) [2-197]
100%: activity (mortality) [4] | activity (mortality in %; 100% means that all eggs are infertile) [1] | activity (mortality) [2] | activity (larval mortality) [3]

N#Cc1ccc2cc(C(=O)Nc3c(Br)cc(C(F)(C(F)(F)F)C(F)(F)C(F)(F)F)cc3SC(F)(F)F)ccc2n1 (stereo not shown) [2-185]
100%: activity (mortality) [4] | activity (mortality in %; 100% means that all eggs are infertile) [1] | activity (mortality) [2] | activity (larval mortality) [3]

CCCc1cc(C(F)(C(F)(F)F)C(F)(F)C(F)(F)F)cc(I)c1NC(=O)c1ccc2nc(C#N)ccc2c1 (stereo not shown) [2-104]
100%: activity (mortality) [4] | activity (mortality in %; 100% means that all eggs are infertile) [1] | activity (mortality) [2] | activity (larval mortality) [3]

CCc1cc(C(F)(C(F)(F)F)C(F)(F)C(F)(F)F)cc(C)c1NC(=O)c1ccc2nc(C#N)ccc2c1 (stereo not shown) [2-90]
100%: activity (mortality in %; 100% means that all eggs are infertile) [1] | activity (mortality) [2] | activity (larval mortality) [3]

CCc1cc(C(F)(C(F)(F)F)C(F)(F)F)cc(CC)c1NC(=O)c1ccc2nc(C#N)ccc2c1 [2-46]
100%: activity (mortality in %; 100% means that all eggs are infertile) [1] | activity (mortality) [2] | activity (larval mortality) [3]

CCc1cc(C2(F)C(F)(F)C(F)(F)C(F)(F)C(F)(F)C2(F)F)cc(C)c1NC(=O)c1ccc2nc(C#N)ccc2c1 [2-130]
100%: activity (mortality in %; 100% means that all eggs are infertile) [1] | activity (mortality) [2] | activity (larval mortality) [3]

N#Cc1ccc2cc(C(=O)Nc3c(I)cc(C(F)(C(F)(F)F)C(F)(F)Br)cc3I)ccc2n1 (stereo not shown) [2-200]
100%: activity (mortality) [4] | activity (mortality in %; 100% means that all eggs are infertile) [1] | activity (mortality) [2] | activity (larval mortality) [3]

N#Cc1ccc2cc(C(=O)Nc3c(Br)cc(C(F)(C(F)(F)F)C(F)(F)F)cc3Br)ccc2n1 [2-64]
100%: activity (mortality) [4] | activity (mortality in %; 100% means that all eggs are infertile) [1] | activity (mortality) [2] | activity (larval mortality) [3]

CC(C)c1cc(C(F)(C(F)(F)F)C(F)(F)C(F)(F)F)cc(I)c1NC(=O)c1ccc2nc(C#N)ccc2c1 (stereo not shown) [2-167]
100%: activity (mortality in %; 100% means that all eggs are infertile) [1] | activity (mortality) [2] | activity (larval mortality) [3]

CCc1cc(C(F)(C(F)(F)F)C(F)(F)Br)cc(C)c1NC(=O)c1ccc2nc(C#N)ccc2c1 (stereo not shown) [2-194]
100%: activity (mortality) [4] | activity (mortality in %; 100% means that all eggs are infertile) [1] | activity (mortality) [2] | activity (larval mortality) [3]

Cc1cc(C(F)(C(F)(F)F)C(F)(F)F)cc(Br)c1NC(=O)c1ccc2nc(C#N)ccc2c1 [2-40]
100%: activity (mortality) [4] | activity (mortality in %; 100% means that all eggs are infertile) [1] | activity (larval mortality) [3]

N#Cc1ccc2cc(C(=O)Nc3c(Br)cc(C(F)(C(F)(F)F)C(F)(F)C(F)(F)F)cc3Br)ccc2n1 (stereo not shown) [2-110]
100%: activity (mortality) [4] | activity (mortality in %; 100% means that all eggs are infertile) [1] | activity (mortality) [2] | activity (larval mortality) [3]

N#Cc1ccc2cc(C(=O)Nc3c(I)cc(C(F)(C(F)(F)F)C(F)(F)F)cc3I)ccc2n1 [2-69]
100%: activity (mortality) [4] | activity (mortality in %; 100% means that all eggs are infertile) [1] | activity (mortality) [2] | activity (larval mortality) [3]

N#Cc1ccc2cc(C(=O)Nc3c(Br)cc(C(F)(F)F)cc3Br)ccc2n1 [2-3]
100%: activity (mortality in %; 100% means that all eggs are infertile) [1]

N#Cc1ccc2cc(C(=O)Nc3c(Cl)cc(C(F)(C(F)(F)F)C(F)(F)F)cc3Cl)ccc2n1 [2-61]
100%: activity (mortality) [4] | activity (mortality in %; 100% means that all eggs are infertile) [1] | activity (mortality) [2] | activity (larval mortality) [3]

CCc1cc(C(F)(C(F)(F)F)C(F)(F)C(F)(F)F)cc(C)c1NC(=O)c1ccc2ncccc2c1 (stereo not shown) [2-88]
100%: activity (mortality in %; 100% means that all eggs are infertile) [1] | activity (larval mortality) [3]

N#Cc1ccc2cc(C(=O)Nc3c(Br)cc(C4(F)C(F)(F)C(F)(F)C(F)(F)C(F)(F)C4(F)F)cc3Br)ccc2n1 [2-133]
100%: activity (mortality) [4] | activity (mortality in %; 100% means that all eggs are infertile) [1] | activity (larval mortality) [3]

CCc1cc(C(OCC(F)(F)F)(C(F)(F)F)C(F)(F)F)cc(C)c1NC(=O)c1ccc2ncccc2c1 [2-75]
100%: activity (larval mortality) [3]

CCCc1cc(C(F)(C(F)(F)F)C(F)(F)C(F)(F)F)cc(Br)c1NC(=O)c1ccc2nc(C#N)ccc2c1 (stereo not shown) [2-164]
100%: activity (mortality) [4] | activity (mortality in %; 100% means that all eggs are infertile) [1] | activity (mortality) [2] | activity (larval mortality) [3]

Cc1cc(C(F)(C(F)(F)F)C(F)(F)Br)cc(C)c1NC(=O)c1ccc2nc(C#N)ccc2c1 (stereo not shown) [2-191]
100%: activity (mortality) [4] | activity (mortality in %; 100% means that all eggs are infertile) [1] | activity (mortality) [2] | activity (larval mortality) [3]
